PMC5613068, “Resolving distinct molecular origins for copper effects on PAI-1” (Journal of Biological Inorganic Chemistry, 2017)

Assay: Isothermal titration calorimetry of Cu(II) binding to PAI-1
Conditions: 10 °C; for ΔG obs / ΔH obs / −TΔS obs: one-site model
Experimental: Isothermal titration calorimetry (ITC) was used to determine the thermodynamic parameters associated with Cu(II) interactions with PAI-1. Active and latent forms of wild-type and variants of PAI-1 were dialyzed into 100 mM MOPS, 250 mM (NH4)2SO4 at 10 °C for 2 h. Because of the relative instability of the H2AH3A variant of PAI-1, our studies on H2AH3A PAI-1 utilized a variant that contained an additional mutation, W175F. […] Residue 175 is not proximal to the N terminus and is not involved in metal ion coordination or its subsequent effects on PAI-1 stability. Copper solutions were prepared by diluting CuSO4 into the matched dialysate buffer. The copper stock concentration was verified using atomic absorbance spectroscopy, and the pH corrected to 7.4 at 10 °C using NaOH. Twenty micromolar PAI-1 (2.2 mL total volume) and copper solution (4 mL) were degassed under vacuum for 10 min at 5 °C prior to loading into the (Malvern) MicroCal VP-ITC. The PAI-1 solution was loaded into the ITC cell (1.394 mL), and the copper solution was loaded into the ITC syringe. The reference and experimental ITC cells were equilibrated to 10 °C prior to the start of the experiment. After a preliminary injection of 2 µL, each additional injection consisted of a 4 µL injection at 120 or 240 s intervals. Experiments were performed at least in duplicate. Control experiments measuring dilution heats were performed in which the copper solution was injected into buffer. The data were baseline corrected using NITPIC software (University of Texas, Southwestern), and fit to either a single-site or two-site non-symmetric binding model in SEDPHAT (National Institutes of Health). The data and fits were represented using GUSSI software (University of Texas, Southwestern).

plasminogen activator inhibitor-1 [Wild-type]
n value (stoichiometry of Cu(II) binding transition) (Cu(II) up to 650–800 μM): 1.2
ΔG obs ([Cu(II)] 650 µM): −10.2 (±0.3) kcal/mol
ΔH obs ([Cu(II)] 650 µM): −15.9 (±0.3) kcal/mol
−TΔS obs ([Cu(II)] 650 µM): 5.7 (±0.3) kcal/mol
ΔG obs ([Cu(II)] 700 µM): −10.0 (±0.7) kcal/mol
ΔH obs ([Cu(II)] 700 µM): −16.4 (±0.6) kcal/mol
−TΔS obs ([Cu(II)] 700 µM): 6.3 (±0.7) kcal/mol
ΔG obs ([Cu(II)] 750 µM): −9.9 (±0.4) kcal/mol
ΔH obs ([Cu(II)] 750 µM): −15.9 (±1.2) kcal/mol
ΔG obs ([Cu(II)] 800 µM): −9.8 (±0.2) kcal/mol
ΔH obs ([Cu(II)] 800 µM): −16.4 (±0.6) kcal/mol
−TΔS obs ([Cu(II)] 800 µM): 6.5 (±0.6) kcal/mol
average ΔG obs (single-site model): -10.0 kcal/mol
average −TΔS obs (single-site model): 5.9 kcal/mol
average ΔH obs (single-site model, average of replicate data): -16.2 kcal/mol
